Patent publication US20040097712A1 (Amgen, published 2004)
Results are given in words; binding and its absence hold for the method and conditions named. A result given as binding can be weak or reduced; the word gives no strength.

Target: avidin-cynoIL-1R1-FLAG with mutation 10.1 (human residue) (cynomolgus)
Assay: multiplexed bead-based assay (Luminex MFI), antibody 25 ug/ml, normalised to anti-FLAG

B1: 15C4 human anti-IL-1R1 monoclonal antibody (purified from hybridoma supernatant) (antibody, V domains shown)
VH: EVQLMQSGAEVKKPGESLKISCKGSGYSFSFHWIAWVRQMPGKGLEWMGIIHPGASDTRYSPSFQGQVTISADNSNSATYLQWSSLKASDTAMYFCARQRELDYFDYWGQGTLVTVSS
VL: EIVLTQSPDFQSVTPKEKVTITCRASQSIGSSLHWYQQKPDQSPKLLIKYASQSFSGVPSRFSGSGSGTDFTLTINSLEAEDAAAYYCHQSSSLPLTFGGGTKVEIK
notes: Human IgG kappa from HuMab mice
binding: binds
